According to publication doi:10.1101/295832:
No constants are given. Whether binding was seen depends on the method and setting. In cells and extracts the contact can be indirect. Some results given as binding are weak or reduced against the parent protein; the word gives no strength. For some assays here: Tags and fused reporters may be left off the sequences shown. Blank lines part the entries; values can stand above or below the molecule they belong to.

Sequences of proteins named here, by UniProt entry; tags and fusion partners are left off. A change or cut given only in a name is not applied to a line headed by its entry. Residues count along the entry.
UniProt P40763: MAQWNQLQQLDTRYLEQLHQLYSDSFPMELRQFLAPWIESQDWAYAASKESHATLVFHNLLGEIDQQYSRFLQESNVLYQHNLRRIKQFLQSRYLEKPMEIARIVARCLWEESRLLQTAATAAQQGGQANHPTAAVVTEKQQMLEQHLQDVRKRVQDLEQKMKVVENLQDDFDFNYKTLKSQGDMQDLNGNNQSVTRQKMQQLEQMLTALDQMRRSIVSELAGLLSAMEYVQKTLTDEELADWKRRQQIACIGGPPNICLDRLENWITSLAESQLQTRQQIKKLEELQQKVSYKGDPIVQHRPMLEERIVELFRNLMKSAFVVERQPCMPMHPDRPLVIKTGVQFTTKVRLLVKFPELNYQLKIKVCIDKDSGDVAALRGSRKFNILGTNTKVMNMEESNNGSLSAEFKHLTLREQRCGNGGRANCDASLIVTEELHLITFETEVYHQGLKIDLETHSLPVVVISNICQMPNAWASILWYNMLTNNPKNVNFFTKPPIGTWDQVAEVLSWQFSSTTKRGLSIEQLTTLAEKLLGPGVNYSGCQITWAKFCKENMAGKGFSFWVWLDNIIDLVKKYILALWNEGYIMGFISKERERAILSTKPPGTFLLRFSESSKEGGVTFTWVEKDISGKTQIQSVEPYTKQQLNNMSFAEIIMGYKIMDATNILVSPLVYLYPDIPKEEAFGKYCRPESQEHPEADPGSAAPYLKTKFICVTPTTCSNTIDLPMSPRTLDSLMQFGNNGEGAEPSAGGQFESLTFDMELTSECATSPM
STAT3 SH2 (STAT3 deletion construct): residues 580-670 of P40763

Tests used:
Assay in all cases: co-IP
[1] = molecular target: T1, Mesoderm specific transcript (MEST), endogenous (human (endogenous in MDA-MB-231 and Hs578T)) (UniProt Q5EB52)
T1 sequence: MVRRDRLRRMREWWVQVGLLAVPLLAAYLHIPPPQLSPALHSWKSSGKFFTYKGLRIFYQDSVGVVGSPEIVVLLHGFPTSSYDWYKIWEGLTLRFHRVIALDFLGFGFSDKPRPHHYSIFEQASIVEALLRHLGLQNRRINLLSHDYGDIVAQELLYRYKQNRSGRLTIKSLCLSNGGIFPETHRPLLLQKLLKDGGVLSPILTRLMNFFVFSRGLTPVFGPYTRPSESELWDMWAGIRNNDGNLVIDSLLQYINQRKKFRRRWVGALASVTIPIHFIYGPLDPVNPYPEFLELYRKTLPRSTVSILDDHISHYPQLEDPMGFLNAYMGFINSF

[2] = molecular target: STAT3, endogenous (human (endogenous in MDA-MB-231, Hs578T and SUM159PT)) (UniProt P40763)
Flag-STAT3 (wild type) = Flag-STAT3 (wild type) (UniProt P40763)
[3] = molecular target: STAT3 SH2 (STAT3 deletion construct) (UniProt P40763)

binding [1]: binds
Molecule: STAT3, endogenous (from UniProt P40763 1-770)

binding (Flag-STAT3 (wild type)): binds
binding [3]: no binding
B2: V5-MEST (full-length MEST) (protein, UniProt Q5EB52 1-335)
chain: MVRRDRLRRMREWWVQVGLLAVPLLAAYLHIPPPQLSPALHSWKSSGKFFTYKGLRIFYQDSVGVVGSPEIVVLLHGFPTSSYDWYKIWEGLTLRFHRVIALDFLGFGFSDKPRPHHYSIFEQASIVEALLRHLGLQNRRINLLSHDYGDIVAQELLYRYKQNRSGRLTIKSLCLSNGGIFPETHRPLLLQKLLKDGGVLSPILTRLMNFFVFSRGLTPVFGPYTRPSESELWDMWAGIRNNDGNLVIDSLLQYINQRKKFRRRWVGALASVTIPIHFIYGPLDPVNPYPEFLELYRKTLPRSTVSILDDHISHYPQLEDPMGFLNAYMGFINSF

Further lines, the molecule ahead of its results:

B1: Mesoderm specific transcript (MEST), endogenous (protein, UniProt Q5EB52 1-335)
chain: MVRRDRLRRMREWWVQVGLLAVPLLAAYLHIPPPQLSPALHSWKSSGKFFTYKGLRIFYQDSVGVVGSPEIVVLLHGFPTSSYDWYKIWEGLTLRFHRVIALDFLGFGFSDKPRPHHYSIFEQASIVEALLRHLGLQNRRINLLSHDYGDIVAQELLYRYKQNRSGRLTIKSLCLSNGGIFPETHRPLLLQKLLKDGGVLSPILTRLMNFFVFSRGLTPVFGPYTRPSESELWDMWAGIRNNDGNLVIDSLLQYINQRKKFRRRWVGALASVTIPIHFIYGPLDPVNPYPEFLELYRKTLPRSTVSILDDHISHYPQLEDPMGFLNAYMGFINSF
binding [2]: binds

B3: V5-MESTΔC (domain or fragment, UniProt Q5EB52 1-286)
chain: MVRRDRLRRMREWWVQVGLLAVPLLAAYLHIPPPQLSPALHSWKSSGKFFTYKGLRIFYQDSVGVVGSPEIVVLLHGFPTSSYDWYKIWEGLTLRFHRVIALDFLGFGFSDKPRPHHYSIFEQASIVEALLRHLGLQNRRINLLSHDYGDIVAQELLYRYKQNRSGRLTIKSLCLSNGGIFPETHRPLLLQKLLKDGGVLSPILTRLMNFFVFSRGLTPVFGPYTRPSESELWDMWAGIRNNDGNLVIDSLLQYINQRKKFRRRWVGALASVTIPIHFIYGPLDPV
binding (Flag-STAT3 (wild type)): no binding
